Data as given in PubChem BioAssay AID1508597 (Cure First, 2020)

Assay: 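Knock-downs altering ovarian cancer cell survival with or without PARP inhibitor rucaparib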 (primary screen)
System: human ovarian carcinoma lines grown from tumours: OCI-P5x (papillary serous) and OCI-C5x (clear cell)
Reagent: siRNA pool against human genes, 1.25 pmol siRNA per well
Timing: 72 h or 96 h, depending on the cell culture
Treatment: rucaparib 20 µM (about IC30) or vehicle, present until read-out
Measurement: 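Luminescent ATP-based viability assay read 72 or 96 h after transfection, depending on culture, given as normalised percent viability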
Scale: viability, normalised: higher = more viable cells remaining
Active means: 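Active when normalised viability falls below 80 percent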
Calls: active = viability under 80%; inactive = viability 80% or more
This is an unselected part of about 2,100 reagents. 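Calls flag viability under 80% in either arm, not effects specific to rucaparib; the reference for percent is not stated.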 A reagent listed more than once was tested more than once; the source does not tell the runs apart. Reagent sequences are not shown. The record does not give: the 100% reference.

viability, normalised (%)	Call	gene symbol	rucaparib or vehicle	cell line	technical replicate
48.7	active	ATR (GeneID 545)	Rucaparib	OCI-C5x (clear cell)	1
72.2	active	ATR (GeneID 545)	Rucaparib	OCI-C5x (clear cell)	1
66.6	active	ATR (GeneID 545)	Rucaparib	OCI-C5x (clear cell)	2
47.8	active	ATR (GeneID 545)	Rucaparib	OCI-C5x (clear cell)	2
50.8	active	ATR (GeneID 545)	Rucaparib	OCI-C5x (clear cell)	3
70.5	active	ATR (GeneID 545)	Rucaparib	OCI-C5x (clear cell)	3
91.8	inactive	ATR (GeneID 545)	Rucaparib	OCI-P5x (serous)	1
86.9	inactive	ATR (GeneID 545)	Rucaparib	OCI-P5x (serous)	1
78	active	ATR (GeneID 545)	Rucaparib	OCI-P5x (serous)	2
85.2	inactive	ATR (GeneID 545)	Rucaparib	OCI-P5x (serous)	2
74.8	active	ATR (GeneID 545)	Rucaparib	OCI-P5x (serous)	3
66.8	active	ATR (GeneID 545)	Rucaparib	OCI-P5x (serous)	3
59.5	active	ATR (GeneID 545)	Vehicle	OCI-C5x (clear cell)	1
72.7	active	ATR (GeneID 545)	Vehicle	OCI-C5x (clear cell)	1
54	active	ATR (GeneID 545)	Vehicle	OCI-C5x (clear cell)	2
50.2	active	ATR (GeneID 545)	Vehicle	OCI-C5x (clear cell)	2
58.3	active	ATR (GeneID 545)	Vehicle	OCI-C5x (clear cell)	3
60.2	active	ATR (GeneID 545)	Vehicle	OCI-C5x (clear cell)	3
89.2	inactive	ATR (GeneID 545)	Vehicle	OCI-P5x (serous)	1
80.8	inactive	ATR (GeneID 545)	Vehicle	OCI-P5x (serous)	1
79.8	active	ATR (GeneID 545)	Vehicle	OCI-P5x (serous)	2
74.1	active	ATR (GeneID 545)	Vehicle	OCI-P5x (serous)	2
82.8	inactive	ATR (GeneID 545)	Vehicle	OCI-P5x (serous)	3
74.1	active	ATR (GeneID 545)	Vehicle	OCI-P5x (serous)	3
72.6	active	ARID3A (GeneID 1820)	Rucaparib	OCI-C5x (clear cell)	1
56.9	active	ARID3A (GeneID 1820)	Rucaparib	OCI-C5x (clear cell)	2
44.5	active	ARID3A (GeneID 1820)	Rucaparib	OCI-C5x (clear cell)	3
61	active	ARID3A (GeneID 1820)	Rucaparib	OCI-P5x (serous)	1
91.4	inactive	ARID3A (GeneID 1820)	Rucaparib	OCI-P5x (serous)	2
88.3	inactive	ARID3A (GeneID 1820)	Rucaparib	OCI-P5x (serous)	3
55	active	ARID3A (GeneID 1820)	Vehicle	OCI-C5x (clear cell)	1
60.1	active	ARID3A (GeneID 1820)	Vehicle	OCI-C5x (clear cell)	2
56.6	active	ARID3A (GeneID 1820)	Vehicle	OCI-C5x (clear cell)	3
83.3	inactive	ARID3A (GeneID 1820)	Vehicle	OCI-P5x (serous)	1
75.8	active	ARID3A (GeneID 1820)	Vehicle	OCI-P5x (serous)	2
91.1	inactive	ARID3A (GeneID 1820)	Vehicle	OCI-P5x (serous)	3
46.1	active	MAGI1 (GeneID 9223)	Rucaparib	OCI-C5x (clear cell)	1
42.7	active	MAGI1 (GeneID 9223)	Rucaparib	OCI-C5x (clear cell)	2
31	active	MAGI1 (GeneID 9223)	Rucaparib	OCI-C5x (clear cell)	3
89.6	inactive	MAGI1 (GeneID 9223)	Rucaparib	OCI-P5x (serous)	1
85	inactive	MAGI1 (GeneID 9223)	Rucaparib	OCI-P5x (serous)	2
56.6	active	MAGI1 (GeneID 9223)	Rucaparib	OCI-P5x (serous)	3
47.8	active	MAGI1 (GeneID 9223)	Vehicle	OCI-C5x (clear cell)	1
61.5	active	MAGI1 (GeneID 9223)	Vehicle	OCI-C5x (clear cell)	2
33.8	active	MAGI1 (GeneID 9223)	Vehicle	OCI-C5x (clear cell)	3
86	inactive	MAGI1 (GeneID 9223)	Vehicle	OCI-P5x (serous)	1
76.3	active	MAGI1 (GeneID 9223)	Vehicle	OCI-P5x (serous)	2
64.9	active	MAGI1 (GeneID 9223)	Vehicle	OCI-P5x (serous)	3

5 neighbouring entries already listed, for reference:
viability, normalised (%)	Call	gene symbol	rucaparib or vehicle	cell line	technical replicate
74.1	active	ATR (GeneID 545)	Vehicle	OCI-P5x (serous)	3
72.6	active	ARID3A (GeneID 1820)	Rucaparib	OCI-C5x (clear cell)	1
56.9	active	ARID3A (GeneID 1820)	Rucaparib	OCI-C5x (clear cell)	2
44.5	active	ARID3A (GeneID 1820)	Rucaparib	OCI-C5x (clear cell)	3
61	active	ARID3A (GeneID 1820)	Rucaparib	OCI-P5x (serous)	1
